The experiment has as its system p21 minimal promoter. Briefly: Fluorometric β-lactamase activity assay in stable HeLa clone 1.17 (p21m-BLA). In kind it is cell-based. The conditions noted are these: Homo sapiens, clone 1.17, about 13 hours treatment, means of 3 to 4 independent experiments. On the procedure: All clones were screened for the presence of stably and functional integrated copies of the p21m-BLA reporter gene transcription cassette by performing a fluorometric β-lactamase activity assay after treatment with the HDAC inhibitor Apicidin at a concentration of 1 μM (saturating dose representing 100% of Bla gene activation, i.e., 100% of HDAC inhibition). A 100 μL aliquot of cells for each stable transformant in complete DMEM was plated into a well of a 96 well plate at about 36,000 cells per well for treatment with 1 μM Apicidin (saturating dose) and a 100 μL aliquot of cells was plated into a well of a 96 well plate at 24,000 cells per well for treatment with DMSO (vehicle control). Each plate also had four DMEM controls and four HeLa cell controls prepared in the same manner. After 4 hours, 25 μL of complete DMEM containing Apicidin at 5× final concentration or DMSO (5%) was added to each of the wells. The cells were then grown at 37° C., 5% CO2 for about 12 to 16 hours. Afterwards, the medium was removed and 100 μL of DMEM without serum and 25 μL of FRET labeled CCF2-AM Bla substrate diluted in the appropriate buffer according to the manufacturer recommendations were each added to the cells to give a final concentration of 1 μM CCF2-AM. Fluorescence was read at λex 405/20 λem 460/40 on a FLUOSTAR (BMG Labtechnologies, Offenburg Germany).

Among the data in patent publication US20080057529A1, “Method for Identifying Histone Deacetylase Inhibitors” (priority 2003, published 2008) are EC50 values, retold here.

By EC50 is commonly meant the concentration at which the effect is half-maximal. Read a low EC50 as an effect from little substance.

With `O=C(CCCCCCC(=O)Nc1ccccc1)NO` [SAHA, suberoylanilide hydroxamic acid], a half-maximal effect (EC50) was put at 1600 nM.
